The nature of the test: IkB Signaling. To be noted: ABC-DLBCL IkBa-CBG/CBR dual luciferase ratio (green luciferase fused to IkBa over red control in OCI-Ly3 lymphoma cells), 4 h. The gist of the method:
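Curves were fitted separately to fusion (green), unfused (red) and ratio luminescence, then classed by r2, magnitude and activity. Cells: OCI-Ly3, 4 h compound plus doxycycline at 37C; 10 uM MG-132 defined full response.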

Setting [1] is: measured here: control luc red channel unless noted.
Where [2] appears, read: measured here: IkB-luc green channel.
The mark [3] stands for this setting: measured here: control luc red channel.

Structures are written as SMILES. This is one part of the list. Shown are side measurements of this screen, not its main read-out; they come without a call. The list favours compounds with an active or inconclusive main result. Potencies come from curve fits of mixed quality, noted in brackets.

Experimental findings from PubChem BioAssay AID445 (National Center for Advancing Translational Sciences (NCATS), 2006) are described below.

On to `COC(=O)Cc1ccc(NC(=O)c2cccs2)cc1`, for which the half-maximal activity concentration (AC50) – broadly, the concentration at which the activity in the assay is half-maximal – under setting [1] was 20 µM [falling, partial curve].
On the same count and under the same terms, for `O=C1CN(C(=O)Cc2ccccc2)C(c2ccc(F)cc2)c2cc(Br)ccc2N1` (stereo not drawn) the value was 31.6 µM [falling, partial curve]; for `Cc1cc(S(=O)(=O)Nc2ccc3oc4c(c3c2)CCCC4)ccc1Cl`, 20 µM [falling, partial curve]; for `CCOc1ccc(CCNCc2c(C(=O)O)c(C)n(Cc3ccccc3F)c2C)cc1`, 12.6 µM [falling, partial curve].
Take `CC1CCN(C(=O)CN2C(=O)C(C)(C)Oc3ccc(C(=O)NC4CCCC4)cc32)CC1`: the AC50 under setting [1] is 3.16 µM [rising, partial curve] [measured here: IkB-luc green channel].
Turning to `CC1CCN(S(=O)(=O)c2ccc3c(c2)N(CC(=O)NCCCN2CCCC(C)C2)C(=O)CS3)CC1` (stereo not drawn), the half-maximal activity concentration (AC50) under setting [1] is 15.8 µM [falling, partial curve].
On the same count and under the same terms, as for `O=C(/C=C\Nc1ccccn1)c1ccccc1`, the figure is 2 µM [falling, full curve].
Same read-out and setting: as for `CN1C(=O)C2(OCC(COc3ccc(Cl)cc3)O2)c2ccccc21` (stereo not drawn), the figure is 0.794 µM [falling, full curve]; as for `Cc1cccc(NC(=O)c2oc3ccc(S(=O)(=O)N4CCC5(CC4)OCCO5)cc3c2C)c1C`, 31.6 µM [falling, single point].
On the same count and under the same terms, as for `CN(C)CCNC(=O)c1ccc(Cn2c(=O)c3cccn3c3cccnc32)cc1`, the figure is 1.26 µM [rising, full curve, poor fit].
Consider `N/C(=N/O)c1nc(N2CCCC2)nc(N(c2ccccc2)c2ccccc2)n1`, for which the concentration at half-maximal activity (AC50) under setting [1] is 25.1 µM [falling, single point].
Same read-out and setting: as for `CCOC(=O)C1CCN(S(=O)(=O)c2cn(C)c(=O)n(C)c2=O)CC1`, the figure is 7.94 µM [falling, full curve, poor fit]; as for `COc1ccc(-n2c(=O)c3c4c(sc3n3c(SC(C)C)nnc23)COC(C(C)C)C4)cc1` (stereo not drawn), 10 µM [falling, partial curve].
The same measure, in the same setting: for `CCCc1cc(=O)[nH]c(SCc2nc(-c3ccccc3F)no2)n1` the value was 2.51 µM [rising, partial curve].
Same read-out and setting: as for `CC(=O)c1cccc(Nc2ccc3cc(S(=O)(=O)N4CCCC4)ccc3n2)c1`, the figure is 6.31 µM [rising, full curve]; as for `CCCNC(=O)c1c(N)n(-c2cc(OC)cc(OC)c2)c2nc3ccccc3nc12`, 10 µM [falling, partial curve].
On to `COc1ccccc1-c1cc(C(F)(F)F)nc(S(=O)(=O)CCCC(=O)Nc2ccc(F)cc2F)n1`, for which the AC50 under setting [1] is 5.01 µM [falling, partial curve].
Still for that read-out and setting: for `O=C(Cn1c(=O)n(Cc2nc(-c3ccccc3)no2)c(=O)c2cc3c(cc21)OCO3)Nc1cccc(C(F)(F)F)c1` the value was 12.6 µM [falling, partial curve]; for `COc1cccc(C2CC(=O)Nc3c2c(=O)n(C)c2nc4ccccc4n32)c1` (stereo not drawn), 1.26 µM [rising, full curve, poor fit]; for `Cc1cccc(C(=O)Nc2nc(-c3nnn(-c4cc(C)ccc4C)c3C)ns2)c1`, 7.94 µM [falling, partial curve].
`COc1cc2c(cc1C(F)(F)F)N(C(=O)Nc1cc(F)cc(-c3cccnc3)c1)CC2`: the AC50 under setting [1] was 3.16 µM [falling, full curve].
On to `COC(=O)c1ccccc1NC(=O)C1CCCN(S(=O)(=O)c2ccc(F)cc2)C1` (stereo not drawn), for which the half-maximal activity concentration (AC50) under setting [1] was 10 µM [falling, partial curve].
Same read-out and setting: for `Cc1cccc(CNC(=O)Cn2ccc3cc(S(=O)(=O)N4CCC(C)CC4)ccc32)c1` the value was 6.31 µM [falling, full curve].
As to `Cc1ccc(-c2nc3c4ccccc4n(CC(=O)N4CCN(c5ccc(F)cc5)CC4)c(=O)n3n2)cc1`, the AC50 under setting [1] was 5.01 µM [rising, partial curve].
On to `Cc1cc(C)cc(Nc2cc(C)nc3nc(-c4ccco4)nn23)c1`, for which, under setting [1], the concentration at half-maximal activity (AC50) is 31.6 µM [falling, partial curve].
On the same count and under the same terms, as for `Cc1cc2ncn(CCOc3ccccc3C#N)c2cc1C`, the figure is 25.1 µM [falling, partial curve].
Consider `O=C(CSc1n[nH]c(-c2ccccc2O)n1)N1CCCc2ccccc21`, for which the AC50 is, setting by setting: under setting [2], 7.94 µM [falling, partial curve, poor fit]; under setting [3], 20 µM [falling, partial curve].
Take `Cc1cc(N2CCC(C(=O)NCCC(C)C)CC2)n2nc(C)c(-c3ccc(Cl)cc3)c2n1`: the AC50 under setting [1] is 2.51 µM [falling, partial curve].
Regarding `Cc1ccc(CN(C(=O)c2ccccc2[N+](=O)[O-])c2ccccn2)cc1`, under setting [1], the AC50 is 20 µM [falling, single point].
Same read-out and setting: as for `COc1ccccc1NC(=O)CSc1oc(-c2ccc(F)cc2)nc1S(=O)(=O)c1ccc(Br)cc1`, the figure is 12.6 µM [falling, partial curve].
For the molecule `CCOC(=O)C1Cn2c(nc3c(c2=O)C2(CCCC2)Cc2ccccc2-3)S1` (stereo not drawn), under setting [1], the AC50 is 12.6 µM [falling, partial curve].
Still for that read-out and setting: for `CSc1cccc(NC(=O)CN2C(=O)COc3ccc(S(=O)(=O)N4CCC(C)CC4)cc32)c1` the value was 15.8 µM [falling, partial curve].
On the same count and under the same terms, for `O=C(CN1C(=O)CC(c2ccco2)Sc2ccccc21)Nc1ccccc1F` (stereo not drawn) the value was 12.6 µM [falling, partial curve]; for `Cc1ccccc1CNC(=O)c1ccc2[nH]c(C)c(C)c2c1`, 20 µM [falling, single point]; for `Nc1nc2ccc(Cl)cc2c2nc(-c3ccco3)nn12`, 1.58 µM [rising, full curve].
As to `Cn1nnnc1SCCCNCc1cc(Cl)ccc1OCc1ccccc1F`, under setting [1], the half-maximal activity concentration (AC50) was 39.8 µM [falling, single point].
As to `CCCCCc1nn2cc(-c3ccccc3)nc2s1`, the concentration at half-maximal activity (AC50) under setting [1] was 15.8 µM [falling, partial curve].
Still for that read-out and setting: for `Cc1cccc(N2CCN(S(=O)(=O)c3c(C(=O)N4CCC(C)CC4)c(C)n(C)c3C)CC2)c1C` the value was 39.8 µM [falling, single point].
The same measure, in the same setting: as for `COC(=O)c1ccc(NC(=O)CC2C(=O)N(c3ccccc3)C(=O)N2Cc2ccco2)cc1` (stereo not drawn), the figure is 25.1 µM [falling, single point].
Same read-out and setting: for `Cn1c(CN2CCCCC2)nc2cc(NC(=O)c3ccccc3)ccc21` the value was 12.6 µM [falling, partial curve]; for `Cc1ccc(C)c(N2CCN(S(=O)(=O)c3ccc4c(c3)OCCO4)CC2)c1`, 20 µM [falling, partial curve].
Consider `CCOC(=O)CS(=O)(=O)c1nc(-c2ccc(F)cc2)cc(C(F)(F)F)n1`, for which, under setting [1], the AC50 was 2.51 µM [falling, full curve].
As to `O=C(Nc1ccc(F)cc1F)N1CCN(c2ccc(Cl)c(Cl)c2)CC1`, the concentration at half-maximal activity (AC50) under setting [1] is 7.94 µM [falling, full curve].
Regarding `Cc1ccc(Cl)cc1NC(=O)Cn1ncc2c(C)n(Cc3ccccc3F)c(C)c2c1=O`, the half-maximal activity concentration (AC50) is, setting by setting: under setting [2], 39.8 µM [rising, single point]; under setting [3], 31.6 µM [rising, single point].
Regarding `COc1ccc(-c2nc(-c3ccccc3)c(-c3ccc(F)cc3)[nH]2)c(OC)c1C`, the AC50 under setting [1] was 15.8 µM [falling, partial curve].
Consider `CCOC(=O)c1ccc(Oc2nc(SC)nc(N(C)C)n2)cc1`, for which, under setting [1], the AC50 was 12.6 µM [falling, partial curve].
Turning to `Cc1ccc(C(C(=O)NC2CCCCC2)N(Cc2cccnc2)C(=O)C2COc3ccccc3O2)o1` (stereo not drawn), the half-maximal activity concentration (AC50) under setting [1] is 316 nM [rising, partial curve, poor fit] [measured here: IkB-luc green channel].
Still for that read-out and setting: for `CCOc1ccc(CCNC(=O)c2ccc3c(c2)sc2nc(-c4ccc(F)cc4)cn23)cc1OCC` the value was 12.6 µM [falling, partial curve]; for `O=S(=O)(NCCc1csc2nc(-c3ccc(F)cc3)nn12)c1ccc(Oc2ccccc2)cc1`, 3.16 µM [rising, single point].
Take `COc1ccc(C2=NOC(CN3C(=O)c4ccccc4S3(=O)=O)C2)cc1` (stereo not drawn): the AC50 under setting [1] is 12.6 µM [falling, partial curve].
The same measure, in the same setting: for `Cc1ccc(C(CC(=O)Nc2ccc(F)c(Cl)c2)N2Cc3ccccc3C2=O)cc1` (stereo not drawn) the value was 20 µM [falling, single point].
The same measure, in the same setting: for `CC(C)c1ccc(NC(=O)CCn2c(=O)c3cccn3c3ccccc32)cc1` the value was 25.1 µM [falling, partial curve].
On the same count and under the same terms, as for `COc1cc(C(=O)Nc2nonc2-c2ccc(Cl)cc2)cc(OC)c1OC`, the figure is 2.51 µM [falling, partial curve]; as for `CCOC(=O)c1ccn(-c2nc(-c3cccc(OC)c3)cc(C(F)(F)F)n2)n1`, 7.94 µM [falling, partial curve].
For `C=CCc1ccc(OCC(O)COCC)c(OC)c1` (stereo not drawn), the AC50 under setting [1] was 20 µM [rising, partial curve].
Same read-out and setting: for `CCOC(=O)c1[nH]c(C)c(CCC(=O)Nc2ccc(Br)c(C)c2)c1C` the value was 31.6 µM [falling, partial curve]; for `COc1ccc(C(=O)N(Cc2ccco2)Cc2ccccc2F)cc1Cl`, 31.6 µM [falling, single point]; for `O=C(NCC(c1ccco1)S(=O)(=O)c1ccc(Cl)cc1)c1ccc(C(F)(F)F)cc1` (stereo not drawn), 20 µM [falling, partial curve].
Same read-out and setting: as for `Cc1ccc(Cn2c(SCc3ccc(C(=O)O)cc3)nc3cccnc32)cc1`, the figure is 15.8 µM [falling, partial curve].
In the case of `CCOc1ccc(CCNC(=O)c2ccc3nc(N4CCC(C)CC4)sc3c2)cc1OCC`, the half-maximal activity concentration (AC50) under setting [1] was 12.6 µM [falling, partial curve].
Still for that read-out and setting: as for `CCN(CCCNC(=O)CN1N=C(c2ccccc2)CCC1=O)c1cccc(C)c1`, the figure is 20 µM [falling, partial curve].
